PubChem BioAssay AID652272 | Drosophila RNAi Screening Center | 2013
The deposit covers about 21,000 reagents; this is an unselected part of those with a known target gene and a result. Of all reagents, 503 (2.4%) were called active. 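Raw plate light values, not normalised; calls rest on replicate z-scores that were not deposited; hits include reporter decreases as well as increases.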 A plus sign joins genes that one reagent is predicted to hit. No sequences are given here. Not stated in the record: the amount of reagent, the time to read-out.

Purpose: 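Genes whose knock-down decreases or increases Hedgehog reporter output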 (primary screen)
Cells: Drosophila clone 8 (Cl8) cells
Reagent: long dsRNA against Drosophila genes
Detection: 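Plate reader light from a firefly reporter under a ptc promoter fragment that responds to Hedgehog, with Renilla light as transfection reference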
Reading the numbers: firefly Hh reporter signal: higher = more ptc reporter light; Renilla reference signal: higher = more Renilla control light
Hit rule: 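Called a hit if the two-replicate mean z-score lies below -2 or above +3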
Calls: active = hit: reporter lowered or raised; inactive = not a hit

Gene | DRSC id | firefly Hh reporter signal, replicate 1 | firefly Hh reporter signal, replicate 2 | firefly Hh reporter signal, replicate 3 | Renilla reference signal, replicate 1 | Renilla reference signal, replicate 2 | Outcome
mRpL51 | DRSC02200 | 58675 | 1.03e5 | – | 2320 | 3186 | inactive
spd-2 | DRSC09682 | 69867 | 44098 | – | 2728 | 1728 | inactive
CG8927 | DRSC16458 | 86768 | 88380 | – | 2129 | 2060 | inactive
CG32773 (retired record) | DRSC17330 | 4.67e5 | 2.46e5 | – | 22717 | 4544 | inactive
kek2 | DRSC03552 | 1.08e5 | 64731 | – | 2632 | 6034 | inactive
lin-52 | DRSC18106 | 1.03e5 | 1.78e5 | – | 4260 | 7800 | inactive
CG15717 | DRSC19684 | 95232 | 3.01e5 | – | 1597 | 11280 | inactive
CG34375 | DRSC14684 | 6.81e5 | 1.20e5 | – | 36966 | 3699 | inactive
CG34375 | DRSC14685 | 4.25e5 | 63906 | – | 25297 | 2368 | inactive
Cyp4e3 | DRSC03306 | 73706 | 50485 | – | 1816 | 4691 | inactive
CycA | DRSC09132 | 91845 | 1.73e5 | – | 3029 | 8930 | inactive
CycA | DRSC11123 | 1.17e5 | 52746 | – | 4614 | 2512 | inactive
Gbeta76C | DRSC11174 | 1.26e5 | 1.26e5 | – | 5436 | 5490 | inactive
tor | DRSC07707 | 89402 | 64480 | – | 2019 | 5024 | inactive
ash1 | DRSC11325 | 99268 | 66262 | – | 3494 | 2113 | inactive
CSN5 | DRSC16592 | 1.52e5 | 1.55e5 | – | 5332 | 5540 | inactive
CG13919 | DRSC08388 | 65908 | 37876 | – | 2565 | 3104 | inactive
CG14111 | DRSC10114 | 37392 | 49990 | 56199 | 3767 | 3846 | inactive
CG12857 | DRSC06197 | 65985 | 50739 | – | 1501 | 3324 | inactive
CG18809 | DRSC19818 | 74803 | 1.91e5 | – | 1922 | 7552 | inactive

In a second layout: entries from further up
kek2 [DRSC03552] | firefly Hh reporter signal, replicate 1 = 1.08e5; firefly Hh reporter signal, replicate 2 = 64731; Renilla reference signal, replicate 1 = 2632; Renilla reference signal, replicate 2 = 6034; Outcome = inactive
lin-52 [DRSC18106] | firefly Hh reporter signal, replicate 1 = 1.03e5; firefly Hh reporter signal, replicate 2 = 1.78e5; Renilla reference signal, replicate 1 = 4260; Renilla reference signal, replicate 2 = 7800; Outcome = inactive
CG15717 [DRSC19684] | firefly Hh reporter signal, replicate 1 = 95232; firefly Hh reporter signal, replicate 2 = 3.01e5; Renilla reference signal, replicate 1 = 1597; Renilla reference signal, replicate 2 = 11280; Outcome = inactive
CG34375 [DRSC14684] | firefly Hh reporter signal, replicate 1 = 6.81e5; firefly Hh reporter signal, replicate 2 = 1.20e5; Renilla reference signal, replicate 1 = 36966; Renilla reference signal, replicate 2 = 3699; Outcome = inactive
CG34375 [DRSC14685] | firefly Hh reporter signal, replicate 1 = 4.25e5; firefly Hh reporter signal, replicate 2 = 63906; Renilla reference signal, replicate 1 = 25297; Renilla reference signal, replicate 2 = 2368; Outcome = inactive
Cyp4e3 [DRSC03306] | firefly Hh reporter signal, replicate 1 = 73706; firefly Hh reporter signal, replicate 2 = 50485; Renilla reference signal, replicate 1 = 1816; Renilla reference signal, replicate 2 = 4691; Outcome = inactive

The list goes on:
Gene | DRSC id | firefly Hh reporter signal, replicate 1 | firefly Hh reporter signal, replicate 2 | firefly Hh reporter signal, replicate 3 | Renilla reference signal, replicate 1 | Renilla reference signal, replicate 2 | Outcome
CG5742 | DRSC06949 | 1.50e5 | 89828 | – | 6535 | 4501 | inactive
DIP-iota | DRSC02140 | 77990 | 50741 | – | 1659 | 4720 | inactive
CG12402 | DRSC14508 | 50438 | 69465 | – | 1298 | 1465 | inactive
CG3520 | DRSC04383 | 86204 | 53987 | – | 2288 | 4546 | inactive
fz4 | DRSC18780 | 87490 | 2.97e5 | – | 3184 | 12161 | inactive
ea | DRSC16939 | 73570 | 97046 | – | 1520 | 2040 | inactive
CG15308 | DRSC17995 | 80903 | 2.24e5 | – | 2449 | 7909 | inactive
CG42741 | DRSC04593 | 1.08e5 | 77632 | – | 2240 | 7056 | inactive
zda | DRSC06936 | 1.29e5 | 1.05e5 | – | 6157 | 4361 | inactive
CG13930 | DRSC08399 | 76956 | 49728 | – | 2741 | 3126 | inactive
CG15097 | DRSC06526 | 1.08e5 | 86762 | – | 5196 | 3568 | inactive
Smg5 | DRSC03124 | 1.26e5 | 71416 | – | 3120 | 1636 | active
CG8745 | DRSC11033 | 83008 | 55240 | – | 2928 | 2101 | inactive
CG8745 | DRSC11034 | 61459 | 76475 | 72432 | 7930 | 1384 | inactive
inaD | DRSC04694 | 1.05e5 | 1.02e5 | – | 2440 | 7962 | inactive
CG34417 | DRSC17467 | 5.05e5 | 1.57e5 | – | 26859 | 3792 | inactive
CG34417 | DRSC18332 | 1.01e5 | 2.91e5 | – | 4264 | 11307 | inactive
CG34417 | DRSC18333 | 1.11e5 | 72972 | – | 2872 | 1797 | inactive
Pdk | DRSC07504 | 61622 | 47568 | – | 2487 | 1837 | inactive
Mad | DRSC00759 | 1.30e5 | 58679 | – | 3065 | 5803 | inactive
CG14232 | DRSC19588 | 87952 | 1.01e5 | – | 2695 | 3173 | inactive
CheA46a | DRSC05184 | 1.03e5 | 2.19e5 | – | 2928 | 9773 | inactive
CR18275 + CG13373 | DRSC17900 | 1.05e5 | 1.76e5 | – | 2945 | 7041 | inactive
KaiR1D | DRSC15516 | 5.61e5 | 93483 | – | 29143 | 2224 | inactive
CG42307 + mus312 | DRSC11008 | 56981 | 69621 | – | 6057 | 5572 | inactive
CG10749 | DRSC09798 | 14184 | 22071 | 38968 | 3219 | 2913 | inactive
Osi22 | DRSC16442 | 1.00e5 | 72054 | – | 3733 | 2008 | inactive
nullo | DRSC18807 | 1.01e5 | 2.11e5 | – | 3171 | 8076 | inactive
milt | DRSC00965 | 4.92e5 | 1.12e5 | – | 24984 | 4789 | inactive
milt | DRSC00966 | 7.01e5 | 1.34e5 | – | 34000 | 6115 | inactive
milt | DRSC02281 | 1.13e5 | 1.28e5 | – | 4850 | 5968 | inactive
CG1888 | DRSC06797 | 1.09e5 | 53700 | – | 2534 | 4880 | inactive
Ptp10D | DRSC20272 | 53677 | 2.40e5 | – | 1554 | 8854 | inactive
inc | DRSC17954 | 91968 | 1.44e5 | – | 3819 | 5653 | inactive
inc | DRSC18512 | 1.23e5 | 1.09e5 | – | 2501 | 3009 | inactive
PyK | DRSC16806 | 6.62e5 | 1.76e5 | – | 28585 | 3987 | inactive
Nipsnap | DRSC20169 | 77123 | 86307 | – | 2432 | 2233 | inactive
